One assay has as its target T1, SAMM50-HA (UniProt Q8BGH2).
T1 sequence: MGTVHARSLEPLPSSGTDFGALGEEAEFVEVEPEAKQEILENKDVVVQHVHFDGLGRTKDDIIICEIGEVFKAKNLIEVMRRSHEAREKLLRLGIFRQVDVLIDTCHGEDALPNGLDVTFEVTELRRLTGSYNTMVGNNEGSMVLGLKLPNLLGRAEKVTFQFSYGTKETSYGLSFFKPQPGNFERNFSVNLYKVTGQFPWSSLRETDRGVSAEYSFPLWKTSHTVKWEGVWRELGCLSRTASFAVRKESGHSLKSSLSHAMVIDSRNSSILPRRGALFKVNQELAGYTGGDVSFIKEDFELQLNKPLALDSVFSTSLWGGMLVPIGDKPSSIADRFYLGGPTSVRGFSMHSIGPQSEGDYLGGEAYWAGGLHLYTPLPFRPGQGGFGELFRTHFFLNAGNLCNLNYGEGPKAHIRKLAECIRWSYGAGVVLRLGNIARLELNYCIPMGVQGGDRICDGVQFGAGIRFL
Description: co-IP; steady state; 500 µg total protein extract in IP buffer (HEPES KOH pH 7.2, 150 mM NaCl, 1 mM MgCl2, 1% Triton), anti-V5, anti-VPS35 or anti-HA overnight at 4 °C, Protein-G agarose, western blot. In general terms: In western blotting, separated proteins are transferred to a membrane and probed.

The target in assay [1] is T2, ATAD3-HA (UniProt Q925I1).
T2 sequence: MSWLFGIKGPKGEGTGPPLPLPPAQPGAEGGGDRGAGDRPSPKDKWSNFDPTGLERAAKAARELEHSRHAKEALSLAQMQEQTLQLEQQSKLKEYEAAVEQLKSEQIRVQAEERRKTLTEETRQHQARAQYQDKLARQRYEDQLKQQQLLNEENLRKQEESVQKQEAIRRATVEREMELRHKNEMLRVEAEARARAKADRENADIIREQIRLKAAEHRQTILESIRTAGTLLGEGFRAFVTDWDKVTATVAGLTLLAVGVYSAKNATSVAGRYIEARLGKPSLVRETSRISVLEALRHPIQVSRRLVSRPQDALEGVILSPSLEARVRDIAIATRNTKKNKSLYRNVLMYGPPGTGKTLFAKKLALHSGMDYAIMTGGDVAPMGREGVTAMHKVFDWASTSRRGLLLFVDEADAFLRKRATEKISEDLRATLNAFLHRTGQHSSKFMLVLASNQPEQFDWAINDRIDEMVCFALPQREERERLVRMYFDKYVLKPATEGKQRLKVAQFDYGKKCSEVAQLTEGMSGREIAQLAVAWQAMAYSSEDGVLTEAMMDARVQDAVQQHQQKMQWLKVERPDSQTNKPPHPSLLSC
The description is as above.

Another assay concerns the target T3, Twinkle-K320E-APEX2-V5 (UniProt Q8CIW5).
T3 sequence: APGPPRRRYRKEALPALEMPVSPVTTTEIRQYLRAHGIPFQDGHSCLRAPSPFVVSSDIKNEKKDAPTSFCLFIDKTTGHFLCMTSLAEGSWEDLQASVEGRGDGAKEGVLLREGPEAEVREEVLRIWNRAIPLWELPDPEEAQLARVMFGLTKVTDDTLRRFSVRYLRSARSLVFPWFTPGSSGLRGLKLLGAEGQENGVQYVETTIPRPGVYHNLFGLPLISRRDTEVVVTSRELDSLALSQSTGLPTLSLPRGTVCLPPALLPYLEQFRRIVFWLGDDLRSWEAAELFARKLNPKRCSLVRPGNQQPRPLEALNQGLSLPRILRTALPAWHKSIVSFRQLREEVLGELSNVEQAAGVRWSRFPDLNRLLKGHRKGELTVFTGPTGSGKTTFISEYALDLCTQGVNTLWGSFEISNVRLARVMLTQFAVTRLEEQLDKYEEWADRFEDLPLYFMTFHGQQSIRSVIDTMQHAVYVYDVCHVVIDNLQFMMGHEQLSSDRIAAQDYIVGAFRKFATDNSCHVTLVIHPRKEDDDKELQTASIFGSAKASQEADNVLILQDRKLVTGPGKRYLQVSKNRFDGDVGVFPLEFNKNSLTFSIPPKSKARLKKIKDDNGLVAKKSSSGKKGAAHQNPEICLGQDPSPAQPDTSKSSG
The description is as above.

Assay [2] has as its target T2, ATAD3-HA. Description: co-IP; cells treated with EtBr (mtDNA damage) before lysis; 500 µg total protein extract in IP buffer (HEPES KOH pH 7.2, 150 mM NaCl, 1 mM MgCl2, 1% Triton), anti-V5 or anti-HA overnight at 4 °C, Protein-G agarose, western blot.

Consider 2 molecules from publication PMC9640553.

These are yes or no findings as the source states them, for the method shown. In cells and extracts the contact can be indirect. Some binding calls cover weakened binding; strength is not graded here. Tags and fused reporters may be left off the sequences shown.

B1: BAK (protein, UniProt O08734 1-209)
chain: MASGQGPGPPKVGCDESPSPSEQQVAQDTEEVFRSYVFYLHQQEQETQGAAAPANPEMDNLPLEPNSILGQVGRQLALIGDDINRRYDTEFQNLLEQLQPTAGNAYELFTKIASSLFKSGISWGRVVALLGFGYRLALYVYQRGLTGFLGQVTCFLADIILHHYIARWIAQRGGWVAALNFRRDPILTVMVIFGVVLLGQFVVHRFFRS
As to B1, the binding entry with SAMM50-HA is given as “binds”.

B2: SAMM50 (protein, UniProt Q8BGH2 1-469)
chain: T1 sequence
B2: the results for the binding result in the assay with ATAD3-HA [1], in the assay with Twinkle-K320E-APEX2-V5 and in the assay with ATAD3-HA [2] were “binds”, “binds” and “no binding (condition: cells treated with EtBr)”, respectively.
